Data from PMC5584760, “Rational design of drug-like compounds targeting Mycobacterium marinum MelF protein” (PLoS ONE, 2017).

Tested on: MelF protein
Test: Circular dichroism (CD) spectroscopy with and without inhibitors
Set-up: species or system Mycobacterium marinum
Details: CD far-UV 190–260 nm, K2D3, percentage; for β-Sheets content of MelF in presence of inhibitor: MelF alone 0.01; for α-Helices content of MelF in presence of inhibitor: MelF alone 91.77

Molecule | β-Sheets content of MelF in presence of inhibitor | α-Helices content of MelF in presence of inhibitor
2,2'-[3-(3-methoxyphenyl)-1,2-propanediyl]bis-1H-benzimidazole [compound 9125618] | 0.01 | 91.77
2-{[(2-methyl-6-phenyl-4-pyrimidinyl)thio]methyl}-1H-benzimidazole [compound 6513745] | 0.01 | 93.72
CC(C)COc1ccc(-c2nn(-c3ccccc3)cc2CO)cc1 [compound 5175552, [3-(4-isobutoxyphenyl)-1-phenyl-1H-pyrazol-4-yl]methanol] | 0.01 | 91.76
c1ccc(CC(Cc2nc3ccccc3[nH]2)c2nc3ccccc3[nH]2)cc1 (stereo not drawn) [compound 5255825, 2,2'-(3-phenyl-1,2-propanediyl)bis-1H-benzimidazole] | 0.01 | 93.21
CCC(C)c1ccc(OCCSc2nc3ccccc3[nH]2)cc1 (stereo not drawn) [compound 6492687, 2-{[2-(4-sec-butylphenoxy)ethyl]thio}-1H-benzimidazole] | 0.01 | 94.75
N~1~,N~1~-diethyl-N~4~-{6-methoxy-2-[2-(4-nitrophenyl)vinyl]-4-quinolinyl}-1,4-pentanediamine [compound 5255829] | 0.01 | 91.76
